Laboratory results from the supplement of paper PMC10849652.
Some of the results follow.

The chains behind the UniProt entries cited, without tags or fusion partners. Where a name states a change or a piece, a line headed by the entry shows the natural chain unless it says otherwise.
UniProt O15381: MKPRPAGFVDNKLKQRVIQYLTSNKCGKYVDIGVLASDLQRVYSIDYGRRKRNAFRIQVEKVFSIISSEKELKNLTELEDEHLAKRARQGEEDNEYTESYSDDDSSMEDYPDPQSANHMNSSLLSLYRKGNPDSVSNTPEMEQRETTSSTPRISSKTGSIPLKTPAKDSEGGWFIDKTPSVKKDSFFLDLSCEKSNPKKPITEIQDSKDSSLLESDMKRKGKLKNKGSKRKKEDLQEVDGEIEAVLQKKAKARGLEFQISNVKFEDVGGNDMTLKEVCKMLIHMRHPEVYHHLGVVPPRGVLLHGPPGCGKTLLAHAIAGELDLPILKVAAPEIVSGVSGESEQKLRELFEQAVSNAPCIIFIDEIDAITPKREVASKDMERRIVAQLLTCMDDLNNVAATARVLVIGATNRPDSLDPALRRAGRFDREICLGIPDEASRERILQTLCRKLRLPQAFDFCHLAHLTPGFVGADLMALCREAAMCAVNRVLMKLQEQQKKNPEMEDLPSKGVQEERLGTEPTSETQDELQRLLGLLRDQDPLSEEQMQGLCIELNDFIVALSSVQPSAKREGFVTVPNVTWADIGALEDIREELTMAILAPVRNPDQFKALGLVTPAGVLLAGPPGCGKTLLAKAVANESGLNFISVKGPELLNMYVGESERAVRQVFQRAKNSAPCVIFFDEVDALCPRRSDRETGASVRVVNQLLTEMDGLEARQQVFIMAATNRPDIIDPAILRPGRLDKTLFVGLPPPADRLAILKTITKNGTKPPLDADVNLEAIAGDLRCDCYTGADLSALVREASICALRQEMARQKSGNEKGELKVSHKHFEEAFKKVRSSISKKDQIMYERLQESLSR
UniProt P50583: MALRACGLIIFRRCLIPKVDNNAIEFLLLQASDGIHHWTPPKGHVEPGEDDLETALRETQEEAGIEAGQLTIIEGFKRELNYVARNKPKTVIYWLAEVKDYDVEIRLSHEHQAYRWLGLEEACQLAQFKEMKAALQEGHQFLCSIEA
UniProt Q96E52: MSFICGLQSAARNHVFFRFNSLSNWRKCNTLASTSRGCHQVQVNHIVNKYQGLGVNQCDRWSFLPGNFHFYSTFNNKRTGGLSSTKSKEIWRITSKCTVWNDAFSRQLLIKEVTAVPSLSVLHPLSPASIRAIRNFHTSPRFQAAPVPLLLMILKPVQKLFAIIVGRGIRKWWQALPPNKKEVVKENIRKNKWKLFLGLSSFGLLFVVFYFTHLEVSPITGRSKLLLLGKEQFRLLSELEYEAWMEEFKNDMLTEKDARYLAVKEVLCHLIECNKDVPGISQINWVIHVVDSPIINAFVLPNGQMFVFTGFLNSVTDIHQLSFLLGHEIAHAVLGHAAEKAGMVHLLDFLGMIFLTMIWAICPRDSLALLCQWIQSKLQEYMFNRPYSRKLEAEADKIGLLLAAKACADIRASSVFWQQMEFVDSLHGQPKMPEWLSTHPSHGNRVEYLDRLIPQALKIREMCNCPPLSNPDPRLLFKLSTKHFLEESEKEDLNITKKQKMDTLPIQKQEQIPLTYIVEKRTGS
UniProt O15504: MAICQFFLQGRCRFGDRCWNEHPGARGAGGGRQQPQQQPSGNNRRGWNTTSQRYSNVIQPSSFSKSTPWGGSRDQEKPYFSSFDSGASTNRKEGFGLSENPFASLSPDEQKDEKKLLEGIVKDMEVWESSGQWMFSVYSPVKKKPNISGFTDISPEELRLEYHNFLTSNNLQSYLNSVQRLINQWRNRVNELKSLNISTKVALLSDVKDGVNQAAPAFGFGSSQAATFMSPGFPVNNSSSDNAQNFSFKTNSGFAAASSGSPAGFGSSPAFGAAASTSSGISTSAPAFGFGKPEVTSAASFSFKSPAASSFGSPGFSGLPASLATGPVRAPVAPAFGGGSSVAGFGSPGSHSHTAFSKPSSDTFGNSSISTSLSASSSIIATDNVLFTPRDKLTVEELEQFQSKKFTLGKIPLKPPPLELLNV
UniProt Q9H6K4: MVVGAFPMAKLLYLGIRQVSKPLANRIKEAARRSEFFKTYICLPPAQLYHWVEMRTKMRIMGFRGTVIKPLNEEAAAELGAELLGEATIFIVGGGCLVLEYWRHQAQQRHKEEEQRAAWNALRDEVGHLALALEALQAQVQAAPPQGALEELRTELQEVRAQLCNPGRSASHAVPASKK
UniProt P0C024: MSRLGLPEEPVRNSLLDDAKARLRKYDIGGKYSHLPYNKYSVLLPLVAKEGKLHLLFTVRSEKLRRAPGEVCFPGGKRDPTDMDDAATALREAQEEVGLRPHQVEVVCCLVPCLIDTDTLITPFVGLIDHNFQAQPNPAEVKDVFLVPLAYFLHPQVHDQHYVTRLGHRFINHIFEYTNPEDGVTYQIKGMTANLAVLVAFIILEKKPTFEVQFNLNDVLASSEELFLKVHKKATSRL
UniProt Q9BSD7: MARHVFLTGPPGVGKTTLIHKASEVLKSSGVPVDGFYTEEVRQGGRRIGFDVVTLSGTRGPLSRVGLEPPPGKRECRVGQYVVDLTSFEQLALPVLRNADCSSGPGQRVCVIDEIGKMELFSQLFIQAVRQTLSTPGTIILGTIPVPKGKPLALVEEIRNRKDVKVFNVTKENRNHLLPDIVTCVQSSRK
UniProt Q9BRP4: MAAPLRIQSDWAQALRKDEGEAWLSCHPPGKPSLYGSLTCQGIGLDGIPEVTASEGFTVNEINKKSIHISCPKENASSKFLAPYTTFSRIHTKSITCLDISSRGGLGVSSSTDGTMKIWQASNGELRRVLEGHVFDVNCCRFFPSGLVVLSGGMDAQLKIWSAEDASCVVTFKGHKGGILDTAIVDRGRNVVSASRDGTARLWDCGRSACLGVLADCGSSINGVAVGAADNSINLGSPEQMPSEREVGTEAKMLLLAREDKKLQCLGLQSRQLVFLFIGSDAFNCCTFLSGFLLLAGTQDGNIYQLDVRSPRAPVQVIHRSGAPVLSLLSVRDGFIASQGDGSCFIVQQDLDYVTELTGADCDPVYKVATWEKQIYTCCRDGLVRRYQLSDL
UniProt Q8IVL6: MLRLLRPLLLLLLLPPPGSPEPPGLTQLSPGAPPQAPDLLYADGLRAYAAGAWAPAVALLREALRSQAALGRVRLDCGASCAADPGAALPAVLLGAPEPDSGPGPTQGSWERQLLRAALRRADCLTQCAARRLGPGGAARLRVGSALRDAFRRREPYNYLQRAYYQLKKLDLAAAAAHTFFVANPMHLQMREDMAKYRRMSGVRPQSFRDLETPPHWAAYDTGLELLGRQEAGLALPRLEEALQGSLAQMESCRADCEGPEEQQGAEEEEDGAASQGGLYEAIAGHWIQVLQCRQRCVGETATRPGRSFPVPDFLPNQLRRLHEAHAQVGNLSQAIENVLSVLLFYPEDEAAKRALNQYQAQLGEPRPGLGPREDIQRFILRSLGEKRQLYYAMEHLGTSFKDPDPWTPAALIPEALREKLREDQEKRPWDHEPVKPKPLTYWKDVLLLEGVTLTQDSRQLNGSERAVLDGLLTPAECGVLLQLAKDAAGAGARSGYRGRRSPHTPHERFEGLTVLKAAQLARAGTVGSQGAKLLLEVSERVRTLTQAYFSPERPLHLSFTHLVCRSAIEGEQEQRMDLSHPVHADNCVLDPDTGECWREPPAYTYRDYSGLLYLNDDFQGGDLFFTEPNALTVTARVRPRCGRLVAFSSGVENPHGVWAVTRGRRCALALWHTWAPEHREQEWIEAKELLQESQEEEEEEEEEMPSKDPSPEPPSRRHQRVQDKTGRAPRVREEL
UniProt Q86UD1: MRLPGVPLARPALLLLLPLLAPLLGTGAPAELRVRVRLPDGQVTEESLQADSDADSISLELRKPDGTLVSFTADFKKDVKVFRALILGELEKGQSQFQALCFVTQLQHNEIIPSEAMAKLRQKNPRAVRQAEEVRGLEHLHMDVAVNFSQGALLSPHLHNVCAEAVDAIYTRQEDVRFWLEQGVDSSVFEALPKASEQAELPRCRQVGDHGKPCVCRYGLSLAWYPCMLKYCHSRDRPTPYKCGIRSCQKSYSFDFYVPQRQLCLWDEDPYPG
UniProt P11926: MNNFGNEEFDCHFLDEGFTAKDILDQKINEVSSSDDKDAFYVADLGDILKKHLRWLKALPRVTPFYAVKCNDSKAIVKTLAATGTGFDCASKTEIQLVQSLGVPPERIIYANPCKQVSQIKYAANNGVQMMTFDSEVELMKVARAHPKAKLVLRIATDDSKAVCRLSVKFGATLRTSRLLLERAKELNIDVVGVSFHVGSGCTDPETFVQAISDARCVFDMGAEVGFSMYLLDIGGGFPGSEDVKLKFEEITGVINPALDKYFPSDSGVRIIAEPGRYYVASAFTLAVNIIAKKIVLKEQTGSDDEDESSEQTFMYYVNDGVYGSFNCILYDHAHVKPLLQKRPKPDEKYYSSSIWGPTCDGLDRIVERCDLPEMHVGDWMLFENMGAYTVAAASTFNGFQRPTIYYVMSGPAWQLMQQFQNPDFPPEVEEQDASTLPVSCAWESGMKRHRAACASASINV
UniProt Q9ULJ1: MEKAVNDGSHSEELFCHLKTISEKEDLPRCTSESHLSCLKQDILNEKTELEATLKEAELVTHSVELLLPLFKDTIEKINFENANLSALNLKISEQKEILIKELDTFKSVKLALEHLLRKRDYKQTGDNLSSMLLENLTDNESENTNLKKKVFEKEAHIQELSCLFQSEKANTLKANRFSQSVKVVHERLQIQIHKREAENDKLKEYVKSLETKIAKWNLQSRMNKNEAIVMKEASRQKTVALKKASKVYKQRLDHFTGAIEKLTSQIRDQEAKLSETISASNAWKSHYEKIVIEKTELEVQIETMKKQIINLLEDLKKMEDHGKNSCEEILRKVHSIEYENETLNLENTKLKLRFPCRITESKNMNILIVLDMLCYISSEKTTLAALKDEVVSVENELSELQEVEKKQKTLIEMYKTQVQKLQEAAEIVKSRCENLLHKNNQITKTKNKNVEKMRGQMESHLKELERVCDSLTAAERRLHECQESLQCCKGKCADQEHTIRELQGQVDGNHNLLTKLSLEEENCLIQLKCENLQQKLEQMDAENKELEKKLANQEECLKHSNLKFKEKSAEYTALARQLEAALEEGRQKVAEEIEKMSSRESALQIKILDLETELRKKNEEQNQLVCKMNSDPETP
UniProt Q9Y6K5: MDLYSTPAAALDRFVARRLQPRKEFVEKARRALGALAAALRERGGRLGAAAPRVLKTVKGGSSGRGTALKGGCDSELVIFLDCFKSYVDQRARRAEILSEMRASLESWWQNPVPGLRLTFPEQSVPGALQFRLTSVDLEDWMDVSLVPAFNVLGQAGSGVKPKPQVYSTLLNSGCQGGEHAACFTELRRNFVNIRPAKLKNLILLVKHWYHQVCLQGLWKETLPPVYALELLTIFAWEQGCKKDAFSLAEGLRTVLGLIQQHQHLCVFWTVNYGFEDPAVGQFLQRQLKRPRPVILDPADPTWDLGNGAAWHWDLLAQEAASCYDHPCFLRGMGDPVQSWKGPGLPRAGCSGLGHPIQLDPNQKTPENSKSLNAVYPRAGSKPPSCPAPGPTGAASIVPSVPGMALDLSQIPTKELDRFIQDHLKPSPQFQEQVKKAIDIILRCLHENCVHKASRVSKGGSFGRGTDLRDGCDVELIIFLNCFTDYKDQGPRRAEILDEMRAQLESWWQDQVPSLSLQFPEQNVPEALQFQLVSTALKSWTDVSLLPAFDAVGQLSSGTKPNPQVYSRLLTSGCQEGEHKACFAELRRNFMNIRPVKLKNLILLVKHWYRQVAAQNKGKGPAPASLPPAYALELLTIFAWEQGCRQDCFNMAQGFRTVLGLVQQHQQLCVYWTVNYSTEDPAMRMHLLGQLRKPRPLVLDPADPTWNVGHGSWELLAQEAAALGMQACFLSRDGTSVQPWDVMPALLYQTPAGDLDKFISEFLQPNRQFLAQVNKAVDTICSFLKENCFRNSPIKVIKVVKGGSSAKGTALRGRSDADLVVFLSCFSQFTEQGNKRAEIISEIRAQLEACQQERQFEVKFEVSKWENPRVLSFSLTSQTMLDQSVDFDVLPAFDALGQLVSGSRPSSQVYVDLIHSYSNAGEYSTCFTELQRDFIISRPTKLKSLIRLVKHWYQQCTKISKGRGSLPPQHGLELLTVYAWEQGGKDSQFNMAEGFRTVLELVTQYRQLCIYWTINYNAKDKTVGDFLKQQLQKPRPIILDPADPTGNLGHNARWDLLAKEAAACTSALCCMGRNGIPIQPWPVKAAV
UniProt Q6ZVK8: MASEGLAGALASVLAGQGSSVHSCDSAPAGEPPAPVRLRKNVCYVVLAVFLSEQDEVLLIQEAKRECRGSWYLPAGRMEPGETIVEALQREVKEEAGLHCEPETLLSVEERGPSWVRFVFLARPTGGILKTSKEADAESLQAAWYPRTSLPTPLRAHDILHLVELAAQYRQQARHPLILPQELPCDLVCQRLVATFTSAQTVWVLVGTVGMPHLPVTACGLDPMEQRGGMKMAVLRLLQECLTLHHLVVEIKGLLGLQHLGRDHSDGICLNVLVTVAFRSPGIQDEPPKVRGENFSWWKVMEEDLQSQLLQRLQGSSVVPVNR

Key:
Assay in all cases: log2 fold change, soluble protein after heating vs DMSO (PISA); higher = thermal stabilisation; K562 cells, 10 uM, 30 min; active = over 0.2 and 3.5 SD of the protein, either way, in both replicates (recomputed)
[1] = compound: Cc1ccc(NC(=O)c2ccc(CN3CC[C@H](N(C)C)C3)c(C(F)(F)F)c2)cc1Nc1nccc(-c2cncnc2)n1 [bafetinib]
Procedure, shortened: (§1)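 K562 cells at 2×10^6 cells/mL were given 10 μM compound for 30 min. Aliquots then went through 3 min of heating across 48°C-58°C, were pooled, and were extracted in PBS with 0.5% NP-40 at 4°C, and the supernatant after 21,000xg for 90 min was quantified by TMTpro 16plex LC-MS/MS with channel sums equalised. Thermal stability relative to control samples, from duplicates, is given as log2 fold change.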

[2] = compound: Cc1cccc(CC(=O)N2CCc3c2ccc(-c2cn(C)c4ncnc(N)c24)c3F)n1
Procedure, shortened: as §1

[3] = compound: Cn1cc(-c2ccc3nnc(C(F)(F)c4ccc5ncccc5c4)n3n2)cn1
Procedure, shortened: as §1

[4] = compound: FC(F)(F)c1ccc(/C=C/c2nc(COc3ccc(CCCCn4ccnn4)cc3)co2)cc1 [mubritinib]
Procedure, shortened: as §1

[5] = compound: NC1(c2ccc(-c3nc4ccn5c(=O)[nH]nc5c4cc3-c3ccccc3)cc2)CCC1
Procedure, shortened: as §1

[6] = compound: O=C(CCCCCCC(=O)Nc1ccccc1)NO [vorinostat]
Procedure, shortened: as §1

[7] = compound: O=C(O)c1ccc2c(c1)nc(Nc1cccc(Cl)c1)c1ccncc12 [silmitasertib]
Procedure, shortened: as §1

[8] = compound: Cc1cn(-c2cc(NC(=O)c3ccc(C)c(Nc4nccc(-c5cccnc5)n4)c3)cc(C(F)(F)F)c2)cn1 [nilotinib]
Procedure, shortened: as §1

[9] = compound: Cc1nc(Nc2n[nH]c3c2CN(C(=O)N[C@H](CN(C)C)c2ccccc2)C3(C)C)c2sccc2n1
Procedure, shortened: as §1

[10] = compound: Cc1nc(Nc2ncc(C(=O)Nc3c(C)cccc3Cl)s2)cc(N2CCN(CCO)CC2)n1 [dasatinib]
Procedure, shortened: as §1

[11] = compound: Cc1ncc(-c2ccnc(Nc3ccc(S(C)(=O)=O)cc3)n2)n1C(C)C
Procedure, shortened: as §1

[12] = compound: Cn1cc(-c2ccc3c(c2)CCN3C(=O)Cc2cccc(C(F)(F)F)c2)c2c(N)ncnc21
Procedure, shortened: as §1

[13] = compound: Cn1cncc1[C@@](N)(c1ccc(Cl)cc1)c1ccc2c(c1)c(-c1cccc(Cl)c1)cc(=O)n2C [tipifarnib]
Procedure, shortened: as §1

[14] = compound: NC(=O)Nc1cc(-c2cccc(F)c2)sc1C(=O)N[C@H]1CCCNC1
Procedure, shortened: as §1

[15] = compound: NC(=O)c1cnc(N[C@@H]2CCCC[C@@H]2N)nc1Nc1cccc(-n2nccn2)c1
Procedure, shortened: as §1

[16] = compound: NCC(=O)Nc1ccc(-n2nc(C(F)(F)F)cc2-c2ccc3c(ccc4ccccc43)c2)cc1
Procedure, shortened: as §1

[17] = compound: Nc1ccccc1NC(=O)c1ccc(CNC(=O)OCc2cccnc2)cc1 [entinostat]
Procedure, shortened: as §1

[18] = compound: O=C1NC(=O)C(c2cnc3ccccn23)=C1c1cn2c3c(cc(F)cc13)CN(C(=O)N1CCCCC1)CC2
Procedure, shortened: as §1

[19] = compound: O=C(CCCCCCNC(=O)c1cnc(N(c2ccccc2)c2ccccc2Cl)nc1)NO [citarinostat]
Procedure, shortened: as §1

[20] = compound: c1cc(OCCN2CCCCC2)cc(-c2n[nH]c3ccc(-c4nnc[nH]4)cc23)c1
Procedure, shortened: as §1

Measured: log2 fold change

NVL (UniProt O15381)
inactive: [1] -0.151 | [2] -0.047 | [3] 0.022 | [4] 0.061 | [5] 0.031 | [6] -0.001 | [7] -0.045

NUDT2 (UniProt P50583)
inactive: [1] -0.031 | [8] -0.03 | [9] 0.044 | [10] -0.149 | [11] -0.001 | [12] -0.004 | [3] 0.034 | [13] -0.048 | [4] 0 | [14] -0.026 | [15] 0.065 | [5] -0.035 | [16] -0.101 | [17] 0.048 | [7] 0.043 | [18] -0.052

OMA1 (UniProt Q96E52)
inactive: [1] 0.087 | [2] 0.062 | [8] -0.018 | [9] 0.027 | [10] -0.009 | [11] -0.023 | [12] 0.021 | [3] -0.103 | [13] 0.021 | [4] 0.002 | [14] -0.009 | [15] -0.048 | [5] -0.046 | [16] -0.029 | [17] -0.037 | [6] -0.225 | [19] 0.017 | [7] 0.013 | [18] 0.016 | [20] -0.023

NSUN7 (UniProt Q8NE18)
inactive: [1] 0.139 | [2] -0.628 | [8] -0.284 | [9] -0.003 | [11] 0.055 | [12] -0.023 | [3] -0.057 | [13] 0.191 | [4] 0.025 | [15] -0.293 | [5] -0.056 | [16] -0.187 | [6] -0.159 | [19] -0.186 | [7] 0.209 | [18] -0.084 | [20] -0.281

NUP42 (UniProt O15504)
inactive: [1] 0.191 | [2] -0.146 | [8] -0.114 | [9] -0.043 | [10] 0.148 | [11] -0.143 | [12] -0.385 | [3] -0.166 | [13] 0.198 | [4] -0.119 | [14] 0.07 | [15] -0.009 | [5] 0.009 | [17] -0.146 | [6] -0.004 | [19] -0.052 | [7] -0.035 | [18] 0.461 | [20] -0.166

OPA3 (UniProt Q9H6K4)
inactive: [1] -0.135 | [8] -0.051 | [9] 0.135 | [10] 0.1 | [11] -0.068 | [12] 0.023 | [3] -0.03 | [13] 0.103 | [4] 0.126 | [14] -0.057 | [15] 0.026 | [5] 0.013 | [16] -0.007 | [17] 0.007 | [19] 0.014 | [7] 0.086 | [18] -0.035 | [20] -0.039

ORC5 (UniProt O43913)
inactive: [1] 0.01 | [2] 0.027 | [8] 0.133 | [9] -0.001 | [10] -0.231 | [11] -0.114 | [12] 0.067 | [3] 0.044 | [13] 0.031 | [4] 0.045 | [14] -0.322 | [15] -0.188 | [5] -0.253 | [16] -0.058 | [17] -0.101 | [6] 0.139 | [19] 0.039 | [7] -0.072 | [20] -0.004

NUDT7 (UniProt P0C024)
inactive: [1] 0.418 | [2] -0.122 | [8] 0.093 | [9] 0.006 | [11] -0.03 | [3] 0.027 | [14] 0.01 | [17] -0.05 | [6] 0.286 | [18] 0.12

NT5C (UniProt Q8TCD5)
inactive: [1] -0.06 | [2] 0.026 | [8] -0.01 | [9] 0.013 | [10] 0.031 | [11] -0.009 | [12] 0.005 | [3] 0.001 | [13] 0.02 | [4] 0.019 | [14] -0.005 | [15] 0.009 | [5] 0.01 | [16] 0.011 | [17] -0.056 | [6] 0.008 | [19] -0.002 | [7] -0.01 | [18] -0.065 | [20] -0.03

NTPCR (UniProt Q9BSD7)
inactive: [1] -0.003 | [2] 0.003 | [8] 0.071 | [9] -0.002 | [10] -0.027 | [11] 0.015 | [12] 0.041 | [3] 0.047 | [13] -0.104 | [4] 0 | [14] -0.008 | [15] -0.052 | [5] -0.124 | [16] -0.062 | [17] -0.008 | [6] 0.042 | [19] 0.103 | [7] -0.099 | [18] -0.007 | [20] 0.035

Reprinted at random: two entries already listed, in no set order.
NT5C (UniProt Q8TCD5)
inactive: [1] -0.06 | [2] 0.026 | [8] -0.01 | [9] 0.013 | [10] 0.031 | [11] -0.009 | [12] 0.005 | [3] 0.001 | [13] 0.02 | [4] 0.019 | [14] -0.005 | [15] 0.009 | [5] 0.01 | [16] 0.011 | [17] -0.056 | [6] 0.008 | [19] -0.002 | [7] -0.01 | [18] -0.065 | [20] -0.03

OPA3 (UniProt Q9H6K4)
inactive: [1] -0.135 | [8] -0.051 | [9] 0.135 | [10] 0.1 | [11] -0.068 | [12] 0.023 | [3] -0.03 | [13] 0.103 | [4] 0.126 | [14] -0.057 | [15] 0.026 | [5] 0.013 | [16] -0.007 | [17] 0.007 | [19] 0.014 | [7] 0.086 | [18] -0.035 | [20] -0.039

(list continues)

PAAF1 (UniProt Q9BRP4)
inactive: [1] -0.011 | [2] -0.01 | [8] -0.084 | [9] 0.058 | [10] -0.051 | [11] -0.026 | [12] 0.018 | [3] 0.016 | [13] -0.03 | [4] 0.017 | [14] 0.028 | [15] -0.011 | [5] -0.078 | [16] 0.019 | [17] 0.006 | [6] -0.013 | [19] -0.003 | [7] -0.001 | [18] 0.014 | [20] -0.025

P3H3 (UniProt Q8IVL6)
inactive: [4] 0.063 | [5] -0.402 | [7] 0.172 | [18] 0.038

OAF (UniProt Q86UD1)
inactive: [3] 0.199 | [4] -0.104 | [14] -0.089 | [5] -0.188 | [17] -0.029 | [7] 0.019

ODC1 (UniProt P11926)
inactive: [8] -0.249 | [9] -0.132 | [10] -0.022 | [11] -0.346 | [13] 0.023 | [15] 0.012

ODF2L isoform 4 (UniProt Q9ULJ1)
inactive: [1] -0.07 | [8] -0.046 | [9] 0.063 | [11] -0.035 | [4] -0.212 | [5] 0.237 | [16] -0.065 | [19] -0.085 | [7] 0.08 | [20] 0.115

PABPC1 (UniProt E5RJM8)
inactive: [13] 0.065 | [14] -0.152 | [17] -0.058

OAS3 (UniProt Q9Y6K5)
inactive: [1] 0.064 | [10] 0.082 | [3] -0.37 | [14] 0.033 | [17] 0.029

NUDT18 (UniProt Q6ZVK8)
inactive: [2] -0.034 | [8] -0.074 | [9] -0.032 | [11] 0.05 | [12] -0.057 | [3] 0.008 | [13] 0.12 | [4] 0.199 | [14] -0.061 | [15] -0.013 | [5] -0.017 | [16] -0.003 | [17] -0.017 | [6] -0.069 | [19] 0.021 | [7] 0.221 | [18] 0.049 | [20] 0.041
